Experimental data: the supplement of paper PMC12873370
Values joined by “and” are separate entries in the source; they are usually repeats but may differ in a detail not shown here. Equal entries are not always repeated. This is one part of the list. Many values rest on one well or one pass, so single values are uncertain.

What was measured:
[1] = system: MEPP (mouse ovarian epithelium Trp53/Pten KO); test: cell viability relative to untreated (fraction); higher = less growth inhibition; conditions: 5 µM; 3 days
[2] = system: PREPP (mouse prostate epithelium Trp53/Pten KO); test: as above; conditions: 5 µM; 3 days

SMILES: COc1cc(C2Oc3c(O)cc([C@H]4Oc5cc(O)cc(O)c5C(=O)[C@@H]4O)cc3C2CO)ccc1O (stereo partly specified)
- cell viability [1]: 1.24
- cell viability [2]: 0.879

SMILES: CC(C)=CCC/C(C)=C/Cc1c(O)c(CC=C(C)C)c2c(c1O)C(=O)C1=C[C@@H]3C[C@H]4C(C)(C)O[C@@](C/C=C(/C)C(=O)O)(C3=O)[C@@]14O2
- cell viability [1]: 0.275
- cell viability [2]: 0.645

SMILES: O=C1CCC[C@@H]2[C@H]3CCC[N+]4([O-])CCC[C@@H](CN12)[C@@H]34 (stereo partly specified)
- cell viability [1]: 1.03
- cell viability [2]: 1.16

SMILES: NCC(=O)CCC(=O)O
- cell viability [1]: 1.05
- cell viability [2]: 0.906

SMILES: COc1cc(O)c2c(=O)c(O[C@@H]3O[C@H](CO)[C@@H](O)[C@H](O)[C@H]3O)c(-c3ccc(O[C@@H]4O[C@H](CO)[C@@H](O)[C@H](O)[C@H]4O)cc3)oc2c1
- cell viability [1]: 1.38
- cell viability [2]: 0.966

SMILES: N[C@@H]1CONC1=O
- cell viability [1]: 1.31
- cell viability [2]: 0.913

SMILES: O=C(O)CC(O)(CC(=O)O)C(=O)O
- cell viability [1]: 1.15
- cell viability [2]: 1.11

SMILES: O=C1Nc2ccccc2C1=O
- cell viability [1]: 0.752
- cell viability [2]: 1.12

SMILES: O=C(O)[C@H]1CSC(c2nc3ccc(O)cc3s2)=N1
- cell viability [1]: 0.879 and 1.1
- cell viability [2]: 0.999 and 0.902

SMILES: CO[C@H]1/C=C/O[C@@]2(C)Oc3c(C)c(O)c4c(O)c(c(/C=N/N5CCN(C6CCCC6)CC5)c(O)c4c3C2=O)NC(=O)/C(C)=C\C=C\[C@H](C)[C@H](O)[C@@H](C)[C@@H](O)[C@@H](C)[C@H](OC(C)=O)[C@@H]1C
- cell viability [1]: 0.974
- cell viability [2]: 0.745

SMILES: O=c1c(-c2ccc(O)cc2)coc2cc(O)cc(O)c12
- cell viability [1]: 1.1
- cell viability [2]: 0.81

SMILES: Clc1ccc(C(Cn2ccnc2)OCc2ccsc2Cl)c(Cl)c1 (stereo unspecified)
- cell viability [1]: 0.881
- cell viability [2]: 0.925

SMILES: Nc1cc(C(=O)O)ccc1O
- cell viability [1]: 0.985
- cell viability [2]: 0.933
